Earlier results, collected in publication PMC8536575, “Acute effects of the imidacloprid metabolite desnitro-imidacloprid on human nACh receptors relevant for neuronal signaling” (Archives of Toxicology, 2021).

Details: human, in vivo; cited from earlier work

**Q.** With `CC(C)NCC(O)COc1ccc(CC(N)=O)cc1` (centres unmarked) [Atenolol, atenolol] as the molecule, how does the “reported mean AUC” value read?
**A.** 3534 ng·h/mL

**Q.** What about the “reported mean Cmax” value of the same molecule?
**A.** 409.3 ng/mL
